These results are taken from patent US20160256560A1 (priority 2010, published 2016).

Some results are limits rather than exact numbers.

The data set can be described thus: general procedure: Fmoc solid-phase peptide synthesis.

For the substance pHLIP-K(TAMRA)-C(TAMRA), under “conjugation step, overall”, the conjugation yield is 69%. Further, under “late stage modification step”, the step yield was above 90%.
